The supplement of paper PMC10849652
This is one part of the list. Residues, ends and D or L forms follow the SMILES beside them. *: point of attachment. Cbz = O=C(OCc1ccccc1)*

By UniProt entry, the sequences of proteins in these tests, tags left out. Where a name states a change or a piece, a line headed by the entry shows the natural chain unless it says otherwise.
UniProt Q9NYZ3: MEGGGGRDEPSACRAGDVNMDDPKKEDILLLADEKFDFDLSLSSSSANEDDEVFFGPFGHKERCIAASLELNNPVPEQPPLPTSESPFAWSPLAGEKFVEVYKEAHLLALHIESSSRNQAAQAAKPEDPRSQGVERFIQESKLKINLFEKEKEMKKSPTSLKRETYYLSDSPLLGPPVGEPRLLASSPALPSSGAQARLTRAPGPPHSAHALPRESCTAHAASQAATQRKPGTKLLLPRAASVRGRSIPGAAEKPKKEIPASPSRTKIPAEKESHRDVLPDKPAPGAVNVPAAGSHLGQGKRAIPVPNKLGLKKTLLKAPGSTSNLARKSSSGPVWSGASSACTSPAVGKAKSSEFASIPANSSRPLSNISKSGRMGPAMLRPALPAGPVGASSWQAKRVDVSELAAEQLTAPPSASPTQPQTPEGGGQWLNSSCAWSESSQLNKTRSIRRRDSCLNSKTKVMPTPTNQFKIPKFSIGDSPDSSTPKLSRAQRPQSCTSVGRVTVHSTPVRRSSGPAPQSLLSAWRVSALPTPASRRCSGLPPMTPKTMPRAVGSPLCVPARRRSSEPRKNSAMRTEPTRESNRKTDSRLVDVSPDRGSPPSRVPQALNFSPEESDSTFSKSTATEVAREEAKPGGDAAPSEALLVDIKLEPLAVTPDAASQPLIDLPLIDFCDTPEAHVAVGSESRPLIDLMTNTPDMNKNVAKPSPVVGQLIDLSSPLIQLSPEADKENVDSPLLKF
UniProt Q9Y450, whole entry, looked up: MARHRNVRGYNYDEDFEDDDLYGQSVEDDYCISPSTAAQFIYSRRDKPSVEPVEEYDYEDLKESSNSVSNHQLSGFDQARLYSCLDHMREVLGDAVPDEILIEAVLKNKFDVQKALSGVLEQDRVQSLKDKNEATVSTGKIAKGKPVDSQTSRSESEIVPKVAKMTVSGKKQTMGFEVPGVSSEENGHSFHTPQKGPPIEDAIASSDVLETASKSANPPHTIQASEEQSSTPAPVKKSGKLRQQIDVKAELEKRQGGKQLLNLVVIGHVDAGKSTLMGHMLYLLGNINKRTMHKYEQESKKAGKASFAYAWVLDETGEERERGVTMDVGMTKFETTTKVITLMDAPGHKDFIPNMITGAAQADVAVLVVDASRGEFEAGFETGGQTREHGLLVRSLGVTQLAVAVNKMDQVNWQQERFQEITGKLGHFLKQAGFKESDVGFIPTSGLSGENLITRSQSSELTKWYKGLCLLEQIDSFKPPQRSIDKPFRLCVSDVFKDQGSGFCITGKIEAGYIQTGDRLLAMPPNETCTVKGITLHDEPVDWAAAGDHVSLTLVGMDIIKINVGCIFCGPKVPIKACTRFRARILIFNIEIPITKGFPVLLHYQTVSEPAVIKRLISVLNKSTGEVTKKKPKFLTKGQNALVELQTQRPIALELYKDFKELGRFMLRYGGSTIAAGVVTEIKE
UniProt P04921: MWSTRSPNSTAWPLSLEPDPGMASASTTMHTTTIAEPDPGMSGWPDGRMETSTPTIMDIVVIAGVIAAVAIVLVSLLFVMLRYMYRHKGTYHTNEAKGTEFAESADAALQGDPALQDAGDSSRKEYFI
UniProt Q9Y5Z4: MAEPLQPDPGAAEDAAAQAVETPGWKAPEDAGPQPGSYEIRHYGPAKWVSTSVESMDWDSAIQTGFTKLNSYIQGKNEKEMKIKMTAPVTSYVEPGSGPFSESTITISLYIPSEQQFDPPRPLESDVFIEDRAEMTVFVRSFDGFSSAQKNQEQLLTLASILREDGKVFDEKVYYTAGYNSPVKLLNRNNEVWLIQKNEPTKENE
UniProt P28161: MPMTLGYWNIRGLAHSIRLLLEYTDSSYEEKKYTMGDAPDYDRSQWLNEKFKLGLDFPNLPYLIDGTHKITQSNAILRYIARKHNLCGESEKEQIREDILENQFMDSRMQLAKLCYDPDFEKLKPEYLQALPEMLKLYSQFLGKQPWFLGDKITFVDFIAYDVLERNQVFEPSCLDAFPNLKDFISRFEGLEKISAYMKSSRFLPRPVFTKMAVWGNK
UniProt Q8WW33: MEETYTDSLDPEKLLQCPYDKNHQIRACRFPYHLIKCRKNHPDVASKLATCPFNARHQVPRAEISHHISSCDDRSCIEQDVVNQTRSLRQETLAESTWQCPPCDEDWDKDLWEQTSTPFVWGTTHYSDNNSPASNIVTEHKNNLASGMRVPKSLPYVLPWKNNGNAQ
UniProt Q9BXW7: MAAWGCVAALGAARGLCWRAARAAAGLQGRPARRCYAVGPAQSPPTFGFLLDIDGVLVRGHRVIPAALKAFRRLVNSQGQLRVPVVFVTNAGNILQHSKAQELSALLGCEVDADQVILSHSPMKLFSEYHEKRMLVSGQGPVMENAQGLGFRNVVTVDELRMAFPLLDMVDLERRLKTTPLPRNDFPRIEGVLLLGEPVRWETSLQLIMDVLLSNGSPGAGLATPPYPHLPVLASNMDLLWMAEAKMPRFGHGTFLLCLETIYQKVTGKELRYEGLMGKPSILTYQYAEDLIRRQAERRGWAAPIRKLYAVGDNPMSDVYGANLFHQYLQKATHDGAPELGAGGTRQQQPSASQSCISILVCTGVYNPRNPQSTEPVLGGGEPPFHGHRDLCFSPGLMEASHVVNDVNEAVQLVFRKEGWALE
UniProt O94992, whole entry, looked up: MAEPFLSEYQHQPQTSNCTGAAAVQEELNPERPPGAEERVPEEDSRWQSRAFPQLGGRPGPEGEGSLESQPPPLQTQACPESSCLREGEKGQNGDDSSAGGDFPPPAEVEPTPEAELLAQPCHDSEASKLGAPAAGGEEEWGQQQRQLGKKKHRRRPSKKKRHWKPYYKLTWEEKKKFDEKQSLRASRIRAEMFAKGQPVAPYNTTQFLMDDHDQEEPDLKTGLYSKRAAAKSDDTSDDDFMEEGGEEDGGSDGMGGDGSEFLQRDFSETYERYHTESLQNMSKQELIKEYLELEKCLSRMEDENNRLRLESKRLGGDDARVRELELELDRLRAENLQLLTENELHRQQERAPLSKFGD
UniProt Q9BXL5: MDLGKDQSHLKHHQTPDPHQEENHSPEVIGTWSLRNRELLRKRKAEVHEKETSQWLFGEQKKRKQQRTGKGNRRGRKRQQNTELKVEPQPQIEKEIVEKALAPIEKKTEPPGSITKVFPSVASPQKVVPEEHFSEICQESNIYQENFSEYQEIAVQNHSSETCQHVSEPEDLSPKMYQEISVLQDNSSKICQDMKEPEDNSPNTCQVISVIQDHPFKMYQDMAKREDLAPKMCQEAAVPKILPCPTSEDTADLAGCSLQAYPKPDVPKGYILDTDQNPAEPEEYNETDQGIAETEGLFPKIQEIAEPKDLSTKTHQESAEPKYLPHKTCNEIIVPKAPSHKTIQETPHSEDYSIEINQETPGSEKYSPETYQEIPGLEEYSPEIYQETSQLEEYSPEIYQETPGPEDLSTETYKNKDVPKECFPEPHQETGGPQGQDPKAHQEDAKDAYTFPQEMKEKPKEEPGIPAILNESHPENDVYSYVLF
UniProt Q969Y2: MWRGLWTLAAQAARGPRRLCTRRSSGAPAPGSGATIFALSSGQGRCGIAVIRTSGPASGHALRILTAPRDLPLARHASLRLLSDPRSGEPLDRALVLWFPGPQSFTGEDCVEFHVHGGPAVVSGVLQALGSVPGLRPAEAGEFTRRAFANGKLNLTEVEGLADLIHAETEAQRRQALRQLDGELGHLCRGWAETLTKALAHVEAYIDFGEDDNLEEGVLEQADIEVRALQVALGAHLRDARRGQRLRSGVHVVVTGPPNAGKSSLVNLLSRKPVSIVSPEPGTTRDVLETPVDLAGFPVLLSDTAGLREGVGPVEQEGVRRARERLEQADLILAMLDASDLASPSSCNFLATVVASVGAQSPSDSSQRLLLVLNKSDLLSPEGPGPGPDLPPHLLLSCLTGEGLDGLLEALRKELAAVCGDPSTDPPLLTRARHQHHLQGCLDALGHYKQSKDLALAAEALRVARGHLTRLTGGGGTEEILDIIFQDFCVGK
UniProt P53701: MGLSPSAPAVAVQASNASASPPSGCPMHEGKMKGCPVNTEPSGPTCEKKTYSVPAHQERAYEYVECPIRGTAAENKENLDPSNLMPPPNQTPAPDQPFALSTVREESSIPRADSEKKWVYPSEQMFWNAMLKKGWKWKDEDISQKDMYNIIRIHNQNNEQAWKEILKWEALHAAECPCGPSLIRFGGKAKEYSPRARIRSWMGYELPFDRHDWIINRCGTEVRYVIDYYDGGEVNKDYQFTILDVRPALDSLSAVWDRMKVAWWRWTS
UniProt P12081: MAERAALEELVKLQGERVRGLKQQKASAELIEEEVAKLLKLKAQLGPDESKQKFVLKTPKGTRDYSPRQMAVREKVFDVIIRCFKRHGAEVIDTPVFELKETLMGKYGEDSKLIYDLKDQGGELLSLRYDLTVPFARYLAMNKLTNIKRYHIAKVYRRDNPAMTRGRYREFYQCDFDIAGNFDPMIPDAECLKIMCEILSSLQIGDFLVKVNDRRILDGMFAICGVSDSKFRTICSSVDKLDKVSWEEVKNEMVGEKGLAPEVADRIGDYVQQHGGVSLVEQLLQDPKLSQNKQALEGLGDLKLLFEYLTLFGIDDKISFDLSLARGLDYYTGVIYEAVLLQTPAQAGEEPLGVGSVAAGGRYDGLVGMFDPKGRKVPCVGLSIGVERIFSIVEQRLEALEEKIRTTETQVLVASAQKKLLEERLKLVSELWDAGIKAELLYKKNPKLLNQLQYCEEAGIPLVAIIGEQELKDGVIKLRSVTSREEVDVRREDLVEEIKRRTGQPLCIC
UniProt P51858: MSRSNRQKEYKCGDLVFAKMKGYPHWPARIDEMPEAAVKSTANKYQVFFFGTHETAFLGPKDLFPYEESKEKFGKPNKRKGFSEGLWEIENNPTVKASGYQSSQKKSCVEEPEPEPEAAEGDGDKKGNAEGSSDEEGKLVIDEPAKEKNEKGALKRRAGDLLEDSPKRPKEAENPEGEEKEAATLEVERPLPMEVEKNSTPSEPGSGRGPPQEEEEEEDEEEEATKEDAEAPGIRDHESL
UniProt Q9Y3E1: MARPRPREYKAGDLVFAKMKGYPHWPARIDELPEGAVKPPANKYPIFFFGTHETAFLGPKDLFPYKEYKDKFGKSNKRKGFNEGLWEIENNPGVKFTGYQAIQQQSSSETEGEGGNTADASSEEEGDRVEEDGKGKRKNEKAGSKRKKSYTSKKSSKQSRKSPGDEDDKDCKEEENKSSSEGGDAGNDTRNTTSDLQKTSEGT
UniProt P16401, whole entry, looked up: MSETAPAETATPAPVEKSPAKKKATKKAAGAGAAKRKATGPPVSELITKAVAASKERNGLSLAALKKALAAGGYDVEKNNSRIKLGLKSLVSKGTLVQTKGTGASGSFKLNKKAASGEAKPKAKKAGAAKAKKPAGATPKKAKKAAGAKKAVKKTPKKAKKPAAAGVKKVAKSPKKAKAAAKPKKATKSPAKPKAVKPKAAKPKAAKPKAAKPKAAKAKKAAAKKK

Legend:
Assay in all cases: log2 fold change, soluble protein after heating vs DMSO (PISA); higher = thermal stabilisation; K562 cells, 10 uM, 30 min; active = over 0.2 and 3.5 SD of the protein, either way, in both replicates (recomputed)
[1] = compound: C1COCCN1CCN2C3=CC=CC=C3N=C2NC(=O)C4=CC(=CC=C4)[N+](=O)[O-] [IRAK-1-4 Inhibitor I]
Outline: (§1)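 For each measurement, 10 μM compound was applied for 30 min to K562 cells at 2×10^6 cells/mL. Aliquots were heated for 3 min across 48°C-58°C, pooled, and extracted in PBS with 0.5% NP-40 at 4°C; the supernatant after 21,000xg for 90 min was soluble protein. This was quantified by TMTpro 16plex LC-MS/MS with channel sums equalised, and thermal stability was reported relative to control samples from duplicates, on a log2 fold-change scale.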

[2] = compound: C=CC(=O)N1CCC[C@@H](n2nc(-c3ccc(Oc4ccccc4)cc3)c3c(N)ncnc32)C1 [ibrutinib]
Outline: as §1

[3] = compound: CC(=O)c1cnc2ccc(-c3cc(Cl)c(O)c(Cl)c3)nc2c1N[C@H]1CC[C@H](CN(C)C)CC1
Outline: as §1

[4] = compound: CC(C)(C)Cn1c(N)nc2ccc(-c3[nH]c(C(C)(C)C)nc3-c3ccc(F)cc3)nc21 [ralimetinib]
Outline: as §1

[5] = compound: CC(C)(O)CC(=O)NCCn1ccc2ncnc(Nc3ccc(Oc4cccc(C(F)(F)F)c4)c(Cl)c3)c21
Outline: as §1

[6] = compound: CC(C)C1=C2N=C(C=C(N2N=C1)NCC3=CC=CC=C3)NCCCCCCN
Outline: as §1

[7] = compound: CC(C)C[C@@H](C=O)NC(=O)[C@H](CC(C)C)NC(=O)[C@H](CC(C)C)NC(=O)OCc1ccccc1
Outline: as §1

[8] = compound: CC(C)N(C[C@H]1O[C@@H](n2cnc3c(N)ncnc32)[C@H](O)[C@@H]1O)[C@H]1C[C@@H](CCc2nc3cc(C(C)(C)C)ccc3[nH]2)C1 [pinometostat]
Outline: as §1

[9] = compound: CC1=C(C(CC(=O)N1)C2=CC=C(C=C2)C(F)(F)F)C(=O)NC3=C(C=C4C(=C3)C=NN4)F
Outline: as §1

[10] = compound: CC1=C(C2=C(C=C1)C(=O)C3=CC=CC=C3N2CCCN)C
Outline: as §1

[11] = compound: CC1=C(C=C(C=C1)NC(=O)C2=CC(=CC=C2)C(C)(C)C#N)NC3=CC4=C(C=C3)N=CN(C4=O)C
Outline: as §1

[12] = compound: CC1=C(C=C(C=C1)NC(=O)C2=CC(=CC=C2)N(C)C)NC(=O)C3=CC=C(C=C3)O
Outline: as §1

[13] = compound: CC1=CC=C(C=C1)SC2=C3C=C(SC3=CN=C2)C(=O)N
Outline: as §1

[14] = compound: CC1=NC(=CC=C1)C2=C(N=C(N2)C(C)(C)C)C3=CC4=NC=CN=C4C=C3
Outline: as §1

[15] = compound: CCCCN(Cc1ccc(C(=O)NO)cc1)C(=O)Nc1ccccc1 [Nexturastat A]
Outline: as §1

[16] = compound: CCCS(=O)(=O)Nc1ccc(F)c(C(=O)c2c[nH]c3ncc(-c4ccc(Cl)cc4)cc23)c1F [vemurafenib]
Outline: as §1

[17] = compound: CCCS(=O)(=O)Nc1ccc(F)c(C(=O)c2c[nH]c3ncc(Cl)cc23)c1F
Outline: as §1

[18] = compound: CCCc1cc(C)[nH]c(=O)c1CNC(=O)c1cc(-c2ccnc(N3CCN(C)CC3)c2)cc2c1cnn2C(C)C
Outline: as §1

[19] = compound: CCN(CC)Cc1ccc2cc(COC(=O)Nc3ccc(C(=O)NO)cc3)ccc2c1 [givinostat]
Outline: as §1

[20] = compound: CCN(CCCOc1ccc2c(Nc3cc(CC(=O)Nc4cccc(F)c4)[nH]n3)ncnc2c1)CCOP(=O)(O)O [barasertib]
Outline: as §1

Measured: log2 fold change

GTSE1 (UniProt Q9NYZ3)
inactive: [1] -0.173 | [2] -0.074 | [3] 0.016 | [4] -0.007 | [5] -0.01 | [6] -0.002 | [7] 0.047 | [8] 0.009 | [9] 0.034 | [10] -0.009 | [11] -0.152 | [12] 0.04 | [13] 0.081 | [14] 0.127 | [15] 0.133 | [16] -0.11 | [17] 0.14 | [18] 0.027 | [19] 0.286 | [20] 0.045

HBS1L (UniProt Q9Y450)
inactive: [1] -0.013 | [2] -0.004 | [3] -0.042 | [4] -0.016 | [5] -0.018 | [6] -0.027 | [7] -0.002 | [8] 0 | [9] -0.027 | [10] 0.109 | [11] 0.034 | [12] -0.014 | [13] -0.01 | [14] 0.05 | [15] -0.028 | [16] -0.007 | [17] 0.013 | [18] 0 | [19] 0.029 | [20] 0.043

GYPC (UniProt P04921)
inactive: [1] 0.03 | [2] 0.013 | [3] 0.081 | [4] 0.117 | [5] -0.031 | [6] 0.004 | [7] 0.012 | [8] -0.053 | [9] -0.013 | [10] -0.265 | [11] 0.049 | [12] -0.099 | [13] 0.006 | [14] 0.033 | [15] -0.028 | [16] 0.208 | [17] 0.008 | [18] -0.021 | [19] 0.147 | [20] -0.076

HAGH (UniProt Q16775)
inactive: [1] 0.04 | [2] 0.013 | [3] -0.037 | [4] -0.025 | [5] -0.017 | [6] 0.066 | [7] 0.015 | [8] 0.014 | [9] 0.021 | [10] -0.011 | [11] -0.047 | [12] -0.015 | [13] 0.008 | [14] -0.049 | [15] -0.019 | [16] -0.049 | [17] 0.013 | [18] -0.056 | [19] -0.129 | [20] 0.028

HEBP2 (UniProt Q9Y5Z4)
inactive: [1] 0.055 | [2] -0.046 | [3] 0.008 | [4] -0.094 | [5] 0.016 | [6] 0.048 | [7] -0.022 | [8] -0.042 | [9] -0.003 | [10] 0 | [11] -0.011 | [12] 0.013 | [13] 0.015 | [14] 0.036 | [15] -0.016 | [16] -0.012 | [17] 0.034 | [18] -0.024 | [19] 0.003 | [20] 0.025

GSTM2 (UniProt P28161)
inactive: [1] 0.026 | [2] -0.059 | [3] -0.031 | [4] -0.018 | [5] -0.001 | [6] 0.032 | [7] 0.051 | [8] -0.027 | [9] -0.028 | [10] 0.018 | [11] -0.018 | [12] 0.007 | [13] -0.041 | [14] 0.036 | [15] 0.017 | [16] 0.013 | [17] -0.001 | [18] 0.101 | [19] -0.023 | [20] 0.019

GTSF1 (UniProt Q8WW33)
inactive: [1] 0.027 | [2] 0.021 | [3] 0.028 | [4] 0.303 | [5] 0.007 | [6] 0.063 | [7] -0.072 | [8] -0.039 | [9] 0.002 | [10] -0.026 | [11] -0.007 | [12] 0.138 | [13] -0.002 | [14] 0.013 | [15] -0.059 | [16] -0.026 | [17] -0.018 | [18] -0.018 | [19] -0.012 | [20] 0.003

HDHD5 (UniProt Q9BXW7)
inactive: [1] 0.012 | [2] 0.025 | [3] -0.03 | [4] -0.016 | [5] 0 | [6] -0.026 | [7] -0.002 | [8] 0.028 | [9] 0.025 | [10] 0.08 | [11] 0.075 | [12] -0.073 | [13] 0.132 | [14] -0.008 | [15] 0.064 | [16] -0.023 | [17] 0.197 | [18] 0.191 | [19] -0.029 | [20] 0.026

HEXIM1 (UniProt O94992)
inactive: [1] 0.012 | [2] -0.007 | [3] 0.009 | [4] -0.036 | [5] 0.014 | [6] 0.138 | [7] 0.017 | [8] -0.021 | [9] -0.004 | [10] 0.081 | [11] -0.023 | [12] 0.049 | [13] -0.054 | [14] -0.093 | [15] -0.034 | [16] -0.019 | [17] -0.076 | [18] -0.035 | [19] 0.028 | [20] -0.027

Taken from the results shown (2 entries):
GTSE1 (UniProt Q9NYZ3)
inactive: [1] -0.173 | [2] -0.074 | [3] 0.016 | [4] -0.007 | [5] -0.01 | [6] -0.002 | [7] 0.047 | [8] 0.009 | [9] 0.034 | [10] -0.009 | [11] -0.152 | [12] 0.04 | [13] 0.081 | [14] 0.127 | [15] 0.133 | [16] -0.11 | [17] 0.14 | [18] 0.027 | [19] 0.286 | [20] 0.045

HBS1L (UniProt Q9Y450)
inactive: [1] -0.013 | [2] -0.004 | [3] -0.042 | [4] -0.016 | [5] -0.018 | [6] -0.027 | [7] -0.002 | [8] 0 | [9] -0.027 | [10] 0.109 | [11] 0.034 | [12] -0.014 | [13] -0.01 | [14] 0.05 | [15] -0.028 | [16] -0.007 | [17] 0.013 | [18] 0 | [19] 0.029 | [20] 0.043

(list continues)

HEMGN (UniProt Q9BXL5)
inactive: [1] 0.003 | [2] -0.021 | [3] 0.003 | [4] -0.018 | [5] 0.042 | [6] 0.057 | [7] 0.016 | [8] -0.03 | [9] 0.018 | [10] 0.07 | [11] -0.015 | [12] 0.023 | [13] 0.007 | [14] -0.003 | [15] -0.038 | [16] -0.016 | [17] -0.013 | [18] -0.022 | [19] -0.061 | [20] -0.028

GTPBP3 isoform 2 (UniProt Q969Y2)
inactive: [1] 0.014 | [2] 0.007 | [3] -0.008 | [4] -0.041 | [5] -0.006 | [6] 0.007 | [7] -0.044 | [8] -0.031 | [9] 0.009 | [10] 0.049 | [11] -0.01 | [12] -0.03 | [13] -0.002 | [14] 0.022 | [15] -0.044 | [16] 0.005 | [17] 0.018 | [18] -0.03 | [19] -0.108 | [20] 0.004

HCCS (UniProt P53701)
inactive: [1] 0.024 | [2] 0.01 | [3] -0.001 | [4] -0.103 | [5] -0.001 | [6] -0.011 | [7] 0.044 | [8] -0.014 | [9] 0.017 | [10] 0 | [11] -0.03 | [12] 0.021 | [13] 0.034 | [14] -0.011 | [15] -0.025 | [16] -0.033 | [17] 0 | [18] -0.059 | [19] -0.021 | [20] -0.01

HARS (UniProt P12081)
inactive: [1] 0.032 | [2] 0.012 | [3] 0.006 | [4] -0.054 | [5] 0.019 | [6] 0.035 | [7] -0.034 | [8] -0.033 | [9] 0.009 | [10] -0.006 | [11] -0.033 | [12] 0.021 | [13] -0.007 | [14] 0 | [15] -0.033 | [16] -0.02 | [17] -0.025 | [18] -0.02 | [19] -0.082 | [20] 0.006

HDGF (UniProt P51858)
inactive: [1] 0.021 | [2] -0.001 | [3] 0.013 | [4] 0.015 | [5] 0.003 | [6] -0.023 | [7] -0.002 | [8] -0.047 | [9] 0.026 | [10] -0.103 | [11] -0.081 | [12] 0.005 | [13] 0.011 | [14] 0.066 | [15] 0.013 | [16] -0.012 | [17] 0.017 | [18] -0.019 | [19] 0.013 | [20] 0.043

HDGFL3 (UniProt Q9Y3E1)
inactive: [1] 0.02 | [2] 0.018 | [3] -0.017 | [4] -0.052 | [5] 0.034 | [6] 0.094 | [7] 0.009 | [8] -0.018 | [9] 0.044 | [10] 0.089 | [11] -0.033 | [12] -0.02 | [13] 0.015 | [14] 0.014 | [15] -0.009 | [16] -0.03 | [17] -0.012 | [18] -0.06 | [19] -0.009 | [20] 0.027

H1-5 (UniProt P16401)
inactive: [1] -0.167 | [2] 0.02 | [3] 0.066 | [4] 0.24 | [5] 0.255 | [6] -0.109 | [7] 0.212 | [8] 0.357 | [9] 0.038 | [10] 0.718 | [11] 0.019 | [12] -0.002 | [13] -0.1 | [14] -0.151 | [15] 0.45 | [16] -0.178 | [17] -0.128 | [18] 0.204 | [19] 0.182 | [20] -0.117
